These are literature values, as cited in paper PMC9212491 (Antiviral Research, 2022).

This data set relates to AP2M1 phosphorylation. As to conditions: only at a high concentration; ref Wang et al., 2020; cited from earlier work.

Take `CCS(=O)(=O)N1CC(CC#N)(n2cc(-c3ncnc4[nH]ccc34)cn2)C1` [Baricitinib, baricitinib]: the “concentration at which AP2M1 phosphorylation was inhibited” value is 10 µM.
